# Experimental data taken from PMC10937711.
# By UniProt entry, the sequences of proteins in these tests, tags left out. Where a name states a change or a piece, a line headed by the entry shows the natural chain unless it says otherwise.
# UniProt Q9Y2J4: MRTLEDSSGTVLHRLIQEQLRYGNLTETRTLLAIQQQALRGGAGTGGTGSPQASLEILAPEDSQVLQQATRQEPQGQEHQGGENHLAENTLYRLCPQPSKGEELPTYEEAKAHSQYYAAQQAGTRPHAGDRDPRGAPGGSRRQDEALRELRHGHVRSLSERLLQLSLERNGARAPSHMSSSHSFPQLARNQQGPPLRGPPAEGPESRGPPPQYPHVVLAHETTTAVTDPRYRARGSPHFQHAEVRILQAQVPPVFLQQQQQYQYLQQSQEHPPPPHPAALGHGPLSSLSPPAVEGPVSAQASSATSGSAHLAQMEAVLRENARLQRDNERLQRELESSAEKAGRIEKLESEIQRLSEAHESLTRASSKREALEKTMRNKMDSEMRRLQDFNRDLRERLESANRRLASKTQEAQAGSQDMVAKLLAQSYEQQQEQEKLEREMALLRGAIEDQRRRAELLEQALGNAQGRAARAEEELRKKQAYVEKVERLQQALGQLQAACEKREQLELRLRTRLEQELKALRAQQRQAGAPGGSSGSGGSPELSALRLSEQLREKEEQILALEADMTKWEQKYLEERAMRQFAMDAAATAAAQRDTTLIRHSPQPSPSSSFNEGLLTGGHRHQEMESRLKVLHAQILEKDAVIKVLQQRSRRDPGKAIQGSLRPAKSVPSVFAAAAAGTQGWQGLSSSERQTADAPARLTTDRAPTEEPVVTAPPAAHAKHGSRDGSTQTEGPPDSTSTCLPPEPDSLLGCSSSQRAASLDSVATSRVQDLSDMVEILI
# These are yes or no findings as the source states them, for the method shown. Binding seen in cells or lysates may run through a third protein.
# Biological target: AMOTL2 D/E4A (human) (UniProt Q9Y2J4)
# Experiment: pull-down; SBP-tagged AMOT (WT, truncations, point mutants) or AMOTL2 constructs as bait, RNF166 as prey; plasmids transfected into 293T cells for 48 h; streptavidin pulldown, immunoblot
substance,measurement,value
RNF166 (from UniProt Q96A37 1-237) (enzyme),binding,no binding
